These results are taken from patent US20240400659A1.

By UniProt entry, the sequences of proteins in these tests, tags left out. Where a name states a change or a piece, a line headed by the entry shows the natural chain unless it says otherwise.
UniProt P02649: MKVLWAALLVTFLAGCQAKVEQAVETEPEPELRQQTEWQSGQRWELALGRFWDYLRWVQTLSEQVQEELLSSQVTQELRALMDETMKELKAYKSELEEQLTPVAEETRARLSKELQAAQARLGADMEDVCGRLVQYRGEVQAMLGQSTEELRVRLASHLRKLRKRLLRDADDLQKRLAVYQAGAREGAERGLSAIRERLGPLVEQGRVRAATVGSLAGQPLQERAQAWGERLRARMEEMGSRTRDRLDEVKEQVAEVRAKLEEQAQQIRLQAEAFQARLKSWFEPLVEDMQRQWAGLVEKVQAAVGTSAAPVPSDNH

In assay [1] the target is Apolipoprotein E4 (human) (UniProt P02649). Nature of the assay: pH affinity ELISA, coated hApoE4 (Example 15). Background: In an ELISA, binding on a coated surface is turned into a signal by an enzyme label.
The target of a further assay is T1, mouse ApoE (mouse) (UniProt P08226).
T1 sequence (looked up): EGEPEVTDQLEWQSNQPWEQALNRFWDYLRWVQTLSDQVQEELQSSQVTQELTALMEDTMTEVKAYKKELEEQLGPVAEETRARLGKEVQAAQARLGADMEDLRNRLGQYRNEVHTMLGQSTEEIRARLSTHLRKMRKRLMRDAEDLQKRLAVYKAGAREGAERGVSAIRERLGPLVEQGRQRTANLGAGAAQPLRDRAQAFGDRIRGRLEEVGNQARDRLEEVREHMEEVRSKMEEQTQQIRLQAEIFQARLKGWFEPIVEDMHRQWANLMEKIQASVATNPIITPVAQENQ
Briefly: pH affinity ELISA, coated mouse ApoE (Example 16).

Results are given in words; binding and its absence hold for the method and conditions named. Some binding calls cover weakened binding; strength is not graded here.

B1: BAP191.01-CPE-HC-M104E (antibody, V domains shown)
VH: QIQLVQSGPELKKPGETVKISCKASGYTFTTAGMQWVQKMPGKGFKWIGWINTHSGEPKYAEDFKGRFAFSLETSASTAYLQISNLKNEDTATYFCARMGGYAEDYWGQGTSVTVSS
VL: DIKLTQSPSSMYASLGERVTITCKASEDINSYLSWFQQKPGKSPKTLIYRANRLVDGVPSRFSGSGSGQDYSLTISSLEYEDMGIYYCLQYDEFPLTFGAGTKLELT
B1: the binding result (in assay [1]; with mouse ApoE (mouse)) was “binds” in each case.

B2: BAP191.01-CPE-HC-M099E (antibody, V domains shown)
VH: QIQLVQSGPELKKPGETVKISCKASGYTFTTAGMQWVQKMPGKGFKWIGWINTHSGEPKYAEDFKGRFAFSLETSASTAYLQISNLKNEDTATYFCAREGGYAMDYWGQGTSVTVSS
VL: DIKLTQSPSSMYASLGERVTITCKASEDINSYLSWFQQKPGKSPKTLIYRANRLVDGVPSRFSGSGSGQDYSLTISSLEYEDMGIYYCLQYDEFPLTFGAGTKLELT
In the case of B2, the binding result (in assay [1]; with mouse ApoE (mouse)) was “binds” in each case.

B3: BAP191.01-CPE-HC-R098E (antibody, V domains shown)
VH: QIQLVQSGPELKKPGETVKISCKASGYTFTTAGMQWVQKMPGKGFKWIGWINTHSGEPKYAEDFKGRFAFSLETSASTAYLQISNLKNEDTATYFCAEMGGYAMDYWGQGTSVTVSS
VL: DIKLTQSPSSMYASLGERVTITCKASEDINSYLSWFQQKPGKSPKTLIYRANRLVDGVPSRFSGSGSGQDYSLTISSLEYEDMGIYYCLQYDEFPLTFGAGTKLELT
As for B3, the binding entry (in assay [1]; in the assay with mouse ApoE (mouse)) was “binds” throughout.

B4: BAP191.01-CPE-HC-I051D (antibody, V domains shown)
VH: QIQLVQSGPELKKPGETVKISCKASGYTFTTAGMQWVQKMPGKGFKWIGWDNTHSGEPKYAEDFKGRFAFSLETSASTAYLQISNLKNEDTATYFCARMGGYAMDYWGQGTSVTVSS
VL: DIKLTQSPSSMYASLGERVTITCKASEDINSYLSWFQQKPGKSPKTLIYRANRLVDGVPSRFSGSGSGQDYSLTISSLEYEDMGIYYCLQYDEFPLTFGAGTKLELT
Turning to B4, the binding entry (in assay [1]; with mouse ApoE (mouse)) was “binds” in each case.

B5: BAP191.01-CPE-LC-P095D (antibody, V domains shown)
VH: QIQLVQSGPELKKPGETVKISCKASGYTFTTAGMQWVQKMPGKGFKWIGWINTHSGEPKYAEDFKGRFAFSLETSASTAYLQISNLKNEDTATYFCARMGGYAMDYWGQGTSVTVSS
VL: DIKLTQSPSSMYASLGERVTITCKASEDINSYLSWFQQKPGKSPKTLIYRANRLVDGVPSRFSGSGSGQDYSLTISSLEYEDMGIYYCLQYDEFDLTFGAGTKLELT
For B5, the binding entry (in assay [1]; with mouse ApoE (mouse)) was “binds” throughout.

B6: BAP191.01-CPE-LC-Y091D (antibody, V domains shown)
VH: QIQLVQSGPELKKPGETVKISCKASGYTFTTAGMQWVQKMPGKGFKWIGWINTHSGEPKYAEDFKGRFAFSLETSASTAYLQISNLKNEDTATYFCARMGGYAMDYWGQGTSVTVSS
VL: DIKLTQSPSSMYASLGERVTITCKASEDINSYLSWFQQKPGKSPKTLIYRANRLVDGVPSRFSGSGSGQDYSLTISSLEYEDMGIYYCLQDDEFPLTFGAGTKLELT
With B6, in assay [1], the binding result is reported as “binds”.

B7: BAP191-01-CPE-HC-M034D (antibody, V domains shown)
VH: QIQLVQSGPELKKPGETVKISCKASGYTFTTAGDQWVQKMPGKGFKWIGWINTHSGEPKYAEDFKGRFAFSLETSASTAYLQISNLKNEDTATYFCARMGGYAMDYWGQGTSVTVSS
VL: DIKLTQSPSSMYASLGERVTITCKASEDINSYLSWFQQKPGKSPKTLIYRANRLVDGVPSRFSGSGSGQDYSLTISSLEYEDMGIYYCLQYDEFPLTFGAGTKLELT
On to B7, for which the binding entry (in assay [1]; with mouse ApoE (mouse)) was “binds” each time.
